The supplement of paper PMC10689618
Counter-ions that a name gives are not always drawn. The list shows a part of the results. Single values are uncertain, as repeats are few or missing.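 Labelled rat cortical synaptosomes were engulfed by primary human fetal astrocytes. Engulfment equaled a red/green ratio, corrected for calcein live-cell signal and normalized to the plate median. Compounds were toxic when calcein dropped over 30%, and reduced phagocytosis when below 70% of the median above 5 µM.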

Experiments:
Human fetal astrocytes [1] = assay: loss of total cells relative to no-compound high-control median (toxicity); higher = more toxic (fewer cells); settings: 24 h
Human fetal astrocytes [2] = assay: synaptosome phagocytosis (pHrodo/calcein intensity ratio) relative to plate median of data wells; higher = more phagocytosis; settings: 24 h

SMILES | loss of total cells (Human fetal astrocytes [1]; 1.39 µM) [%] | loss of total cells (Human fetal astrocytes [1]; 2.78 µM) [%] | loss of total cells (Human fetal astrocytes [1]; 5.56 µM) [%] | loss of total cells (Human fetal astrocytes [1]; 11.11 µM) [%] | loss of total cells (Human fetal astrocytes [1]; 22.22 µM) [%] | synaptosome phagocytosis (Human fetal astrocytes [2]; 1.39 µM) [%] | synaptosome phagocytosis (Human fetal astrocytes [2]; 2.78 µM) [%] | synaptosome phagocytosis (Human fetal astrocytes [2]; 5.56 µM) [%] | synaptosome phagocytosis (Human fetal astrocytes [2]; 11.11 µM) [%] | synaptosome phagocytosis (Human fetal astrocytes [2]; 22.22 µM) [%]
NCCc1c[nH]c2ccc(C(N)=O)cc12 [5-Carboxamidotryptamine maleate] | 13 | -23.1 | -4.9 | -13.9 | 0 | 130 | 83.6 | 80.6 | 109 | 115
O=C(O)[C@@H]1[C@H](C(=O)O)[C@H]2CC[C@@H]1O2 [Endothall] | -10.5 | -0.9 | -4.1 | -9.4 | 3.2 | 65 | 84.2 | 99 | 119 | 118
Clc1ccc(N2CC3CCC(C2)N3)nn1 | 2.1 | -13.7 | 3.3 | -3.1 | 12 | 97.9 | 105 | 105 | 97.7 | 120
O=C1NCN(c2ccccc2)C12CCN(CC1COc3ccccc3O1)CC2 (stereo not given) [Spiroxatrine] | -11.5 | -21.3 | 1.7 | -10.3 | -9.1 | 104 | 96.9 | 101 | 104 | 100
CCCN1CCc2cccc3c2[C@H]1Cc1ccc(O)c(O)c1-3 [R(-)-Propylnorapomorphine hydrochloride] | -3.8 | -14.5 | 12.3 | 12.1 | 12 | 140 | 101 | 88.5 | 88 | 39.4
CN1CCC(c2c[nH]c3ccc(O)cc23)CC1 | -19.1 | -25 | -12.4 | -14.8 | -0.4 | 104 | 102 | 125 | 107 | 109
CCCN(CCC)[C@@H]1CCc2c(F)ccc(O)c2C1 [R(+)-UH-301 hydrochloride] | -11.5 | -34.4 | -2.8 | 1.9 | -24.7 | 103 | 77.6 | 103 | 104 | 94.8
C[N+]1(C)CCOC(O)(c2ccc(-c3ccc(C4(O)C[N+](C)(C)CCO4)cc3)cc2)C1 (stereo not given) [Hemicholinium-3] | 1.3 | 0.9 | 9.1 | -5.8 | 4 | 99.5 | 88.2 | 89.3 | 95.9 | 99.4
S=C(NC1CCCCC1)N1CCC(c2cnc[nH]2)CC1 [Thioperamide maleate] | -8.4 | -4.5 | 7.3 | 7.3 | 4.1 | 106 | 108 | 100 | 107 | 95.3
CC(=O)c1c(O)c(C)c(O)c(Cc2c(O)c3c(c(C(=O)/C=C/c4ccccc4)c2O)OC(C)(C)C=C3)c1O [Rottlerin] | -28.3 | -28.4 | -11.8 | -1.9 | 8.2 | 114 | 117 | 100 | 100 | 23.3
CN1[C@@H]2CC[C@H]1C[C@@H](OC(=O)c1cc(Cl)cc(Cl)c1)C2 [3-Tropanyl-3,5-dichlorobenzoate] | -21.4 | -13.5 | 4.5 | -7.3 | 5.8 | 109 | 97.1 | 87.6 | 88.1 | 80.3
C[C@H](N)CN1CCc2ccc(Br)cc21 [VER-3323 hemifumarate salt] | -2.4 | 12.2 | 0.5 | 12.4 | 14 | 89.3 | 92.5 | 72 | 71.7 | 55.4
O=C(OC1CCN(CCCl)CC1)C(c1ccccc1)c1ccccc1 [4-Diphenylacetoxy-N-(2-chloroethyl)piperidine hydrochloride] | 5.4 | -11.1 | 1.6 | -1.3 | -12.8 | 99.3 | 84.5 | 111 | 108 | 65.4
CCCCCCCCCCCCCC(=O)O[C@@H]1[C@@H](C)[C@@]2(O)[C@@H](C=C(CO)C[C@]3(O)C(=O)C(C)=C[C@@H]23)[C@@H]2C(C)(C)[C@]12OC(C)=O [Phorbol 12-myristate 13-acetate] | 17.1 | 22.5 | 24.7 | 38.7 | 19.8 | 88 | 91 | 88.3 | 62.8 | 81.5
CN1C2CCC1CC(OC(c1ccccc1)c1ccc(Cl)cc1)C2 (stereo not drawn) [4'-Chloro-3-alpha-(diphenylmethoxy)tropane hydrochloride] | 1.3 | -7.7 | 6.6 | 12.1 | 23.2 | 86.5 | 69.9 | 86 | 96.8 | 97.6
COc1ccc2c(c1)[C@@]13CCCC[C@H]1[C@@H](C2)NCC3 [3-Methoxy-morphanin hydrochloride] | -6.2 | -2.3 | 10.8 | 14.3 | -4.7 | 85.7 | 96.7 | 90.4 | 80.2 | 81
Oc1ccc2c3c1O[C@H]1c4[nH]c5ccccc5c4C[C@@]4(O)[C@@H](C2)N(CC2CC2)CC[C@]314 [Naltrindole hydrochloride] | -6.2 | -1.4 | 7 | 17.1 | 6.5 | 70.6 | 67.8 | 86 | 80.8 | 64
Cc1ccc(S(=O)(=O)N[C@@H](CCCCN)C(=O)CCl)cc1 [Na-p-Tosyl-L-lysine chloromethyl ketone hydrochloride] | -5.3 | -6.9 | -5.6 | -9.6 | -12.3 | 110 | 92.9 | 102 | 83.6 | 118
C[C@@H]1O[C@@H](O[C@H]2C[C@@H](O)[C@]3(CO)[C@H]4[C@H](O)C[C@]5(C)[C@@H](C6=CC(=O)OC6)CC[C@]5(O)[C@@H]4CC[C@]3(O)C2)[C@H](O)[C@H](O)[C@H]1O [Ouabain] | 10.9 | 31.2 | 34.3 | 40 | 11.2 | 104 | 55.3 | 29.6 | 13.2 | 44
COc1ccc(CCN)cc1O [4-Methoxy-3-hydroxyphenethylamine hydrochloride] | -2.9 | 2.6 | -9.9 | -8.5 | 3.2 | 135 | 131 | 108 | 97 | 111
CN(C(=O)Cc1ccc(Cl)c(Cl)c1)C(CN1CCCC1)c1cccc(OCC(=O)O)c1 (stereo not given) [ICI 204,448 hydrochloride] | -1.4 | 10.4 | -9.9 | 1 | -19.6 | 103 | 85.1 | 91.3 | 112 | 109
CC(=O)NBr [N-Bromoacetamide] | -1.1 | -7.5 | -21.7 | -0.4 | 13.2 | 125 | 119 | 92.5 | 96.4 | 116

SMILES | loss of total cells (Human fetal astrocytes [1]; 1.39 µM) [%] | loss of total cells (Human fetal astrocytes [1]; 2.78 µM) [%] | loss of total cells (Human fetal astrocytes [1]; 5.56 µM) [%] | loss of total cells (Human fetal astrocytes [1]; 11.11 µM) [%] | loss of total cells (Human fetal astrocytes [1]; 22.22 µM) [%] | synaptosome phagocytosis (Human fetal astrocytes [2]; 1.39 µM) [%] | synaptosome phagocytosis (Human fetal astrocytes [2]; 2.78 µM) [%] | synaptosome phagocytosis (Human fetal astrocytes [2]; 5.56 µM) [%] | synaptosome phagocytosis (Human fetal astrocytes [2]; 11.11 µM) [%] | synaptosome phagocytosis (Human fetal astrocytes [2]; 22.22 µM) [%]
CN1CC[C@]2(CCN3CCc4c(oc5ccccc45)[C@@H]3C2)N(C)C1=O | -14.7 | -5.9 | -4.2 | 4.8 | -14 | 108 | 93 | 74.5 | 90.2 | 106
CCN(CC)C(=O)NC1CC2c3cccc4[nH]cc(c34)CC2N(C)C1 (stereo not drawn) [R(+)-Terguride] | 2.2 | 1.5 | 7.3 | -1.9 | -2.5 | 120 | 127 | 108 | 108 | 105
N[C@@H](CCl)C(=O)O [beta-Chloro-L-alanine hydrochloride] | -13.6 | -8.4 | -1.4 | -15.7 | -4.1 | 80.2 | 88.9 | 99.9 | 122 | 90.5
N#CC(C#N)=Cc1cc(O)c(O)c(O)c1 [Tyrphostin 25] | -44.4 | -11.7 | 2.2 | -18 | -18.9 | 84.9 | 94 | 102 | 146 | 115
CCCN1CCC[C@@H]2Cc3n[nH]cc3C[C@H]21 [(-)-Quinpirole hydrochloride] | -7.1 | -24.3 | 3.4 | -14.2 | -20.6 | 115 | 90.2 | 92.6 | 89.8 | 128
N[C@H](C(=O)O)c1cc(O)no1 (racemic) [(±)-Ibotenic acid] | 10 | 27.6 | -5.2 | 18.1 | 10.3 | 126 | 146 | 96.2 | 113 | 133
NC(N)=Nc1ccc2[nH]c3c(c2c1)C[C@@]1(O)[C@H]2Cc4ccc(O)c5c4[C@@]1(CCN2CC1CC1)[C@H]3O5 [Guanidinyl-naltrindole di-trifluoroacetate] | 0.4 | -8.5 | -2.5 | -24.7 | 1.6 | 110 | 86.1 | 116 | 95.2 | 107
CN(C)C(=O)Oc1ccc[n+](C)c1 [Pyridostigmine bromide] | -28.9 | -23.7 | -7.9 | -18 | -44.4 | 95.7 | 109 | 98.7 | 86.4 | 102
O=C(Cc1ccc(Cl)c(Cl)c1)N1CCCCC1CN1CCCC1 (stereo not given) | -15.2 | -18.3 | -6.7 | 13.4 | 8.2 | 104 | 79 | 109 | 76.2 | 103
C[C@]12CC[C@@H](O)C[C@@H]1CC[C@@H]1[C@@H]2CC[C@]2(C)[C@@H](C(=O)CO)CC[C@@H]12 [3-alpha,21-Dihydroxy-5-alpha-pregnan-20-one] | -0.5 | 1.4 | 23 | 12.4 | 7.5 | 118 | 122 | 136 | 82.9 | 102
NCC1(CC(=O)O)CCCCC1 [Gabapentin] | 8.8 | -10.3 | 4.1 | -10.3 | -4 | 117 | 114 | 99.3 | 137 | 103
C=C(C)[C@H]1CN[C@H](C(=O)O)[C@H]1CC(=O)O [Kainic acid] | -10.9 | -5 | -9.9 | 7.6 | 6.5 | 87.5 | 108 | 114 | 123 | 119
CCCn1c(=O)c2[nH]c(C3CCCC3)nc2n(CCCOC(=O)c2ccc(S(=O)(=O)F)cc2)c1=O | 2.9 | -12.8 | -13.2 | -26.5 | 12 | 116 | 103 | 121 | 103 | 131
CCCN(CCC)C1CCc2ccc(O)cc2C1 (racemic) [(±)-7-Hydroxy-DPAT hydrobromide] | -11.3 | -12.8 | 9.9 | -18.4 | -29.6 | 90.7 | 124 | 87.2 | 89.1 | 91.6
CCCN1CCO[C@@H]2c3cc(O)ccc3OC[C@H]21 (racemic) [(±)-PD 128,907 hydrochloride] | 4 | -31.4 | -13.5 | -15.7 | -43.6 | 111 | 75.9 | 94.7 | 92.9 | 97.4
NC(CCP(=O)(O)O)C(=O)O (racemic) [(±)-2-Amino-4-phosphonobutyric acid] | -12.5 | 0.9 | -5.1 | -11.2 | -1.1 | 98.6 | 101 | 120 | 132 | 132
NC1CCc2cc(O)c(O)cc2C1 (stereo not given) [6,7-ADTN hydrobromide] | 6.3 | -16.2 | 4.1 | 5.8 | 4.8 | 115 | 108 | 105 | 102 | 104
C[Se]C[C@H](N)C(=O)O [Se-(methyl)selenocysteine hydrochloride] | -10 | -3.2 | 6.1 | 1.9 | 1.9 | 122 | 131 | 72.5 | 109 | 97.7
O=C(O)[C@@H]1CCN1 [L-azetidine-2-carboxylic acid] | -3.3 | -6.9 | -17.1 | -5.8 | 13.2 | 134 | 107 | 106 | 124 | 136
CC[C@H]1CN2CCc3cc(OC)c(OC)cc3[C@@H]2C[C@@H]1C[C@H]1NCCc2cc(OC)c(OC)cc21 [Emetine dihydrochloride hydrate] | -7.9 | -23.9 | -4.1 | -48 | -19.2 | 53.1 | 42 | 32.9 | 47.6 | 25
CCN(CCCl)Cc1ccccc1Br [DSP-4 hydrochloride] | -24.6 | -9.3 | -8.8 | 11.2 | -3.4 | 87.4 | 83.1 | 97 | 116 | 98.6

Limited to loss of total cells (Human fetal astrocytes [1]; 22.22 µM) [%] and synaptosome phagocytosis (Human fetal astrocytes [2]; 11.11 µM) [%], for two of the compounds above:
SMILES	loss of total cells (Human fetal astrocytes [1]; 22.22 µM) [%]	synaptosome phagocytosis (Human fetal astrocytes [2]; 11.11 µM) [%]
C[C@]12CC[C@@H](O)C[C@@H]1CC[C@@H]1[C@@H]2CC[C@]2(C)[C@@H](C(=O)CO)CC[C@@H]12 [3-alpha,21-Dihydroxy-5-alpha-pregnan-20-one]	7.5	82.9
NCC1(CC(=O)O)CCCCC1 [Gabapentin]	-4	137
